{
  "sequences": {"note": "Chains of the proteins cited; added tags and fusions are not shown.", "UniProt Q14145": "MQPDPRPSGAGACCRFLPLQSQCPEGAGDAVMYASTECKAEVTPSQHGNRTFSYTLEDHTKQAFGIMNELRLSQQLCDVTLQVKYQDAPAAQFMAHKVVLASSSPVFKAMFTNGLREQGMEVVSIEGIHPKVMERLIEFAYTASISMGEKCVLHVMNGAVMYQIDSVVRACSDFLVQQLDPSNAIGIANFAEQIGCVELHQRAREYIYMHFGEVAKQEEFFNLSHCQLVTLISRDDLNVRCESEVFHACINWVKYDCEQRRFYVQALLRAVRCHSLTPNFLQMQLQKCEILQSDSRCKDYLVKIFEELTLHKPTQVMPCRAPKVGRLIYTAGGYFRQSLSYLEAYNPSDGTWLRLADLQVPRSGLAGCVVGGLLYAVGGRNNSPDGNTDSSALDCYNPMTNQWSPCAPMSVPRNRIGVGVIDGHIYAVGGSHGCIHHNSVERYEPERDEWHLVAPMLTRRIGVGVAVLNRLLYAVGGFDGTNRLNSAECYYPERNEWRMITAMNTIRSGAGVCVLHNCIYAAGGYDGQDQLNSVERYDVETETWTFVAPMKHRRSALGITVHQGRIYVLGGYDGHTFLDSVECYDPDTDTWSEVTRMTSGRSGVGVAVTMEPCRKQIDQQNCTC", "UniProt Q9UKB1": "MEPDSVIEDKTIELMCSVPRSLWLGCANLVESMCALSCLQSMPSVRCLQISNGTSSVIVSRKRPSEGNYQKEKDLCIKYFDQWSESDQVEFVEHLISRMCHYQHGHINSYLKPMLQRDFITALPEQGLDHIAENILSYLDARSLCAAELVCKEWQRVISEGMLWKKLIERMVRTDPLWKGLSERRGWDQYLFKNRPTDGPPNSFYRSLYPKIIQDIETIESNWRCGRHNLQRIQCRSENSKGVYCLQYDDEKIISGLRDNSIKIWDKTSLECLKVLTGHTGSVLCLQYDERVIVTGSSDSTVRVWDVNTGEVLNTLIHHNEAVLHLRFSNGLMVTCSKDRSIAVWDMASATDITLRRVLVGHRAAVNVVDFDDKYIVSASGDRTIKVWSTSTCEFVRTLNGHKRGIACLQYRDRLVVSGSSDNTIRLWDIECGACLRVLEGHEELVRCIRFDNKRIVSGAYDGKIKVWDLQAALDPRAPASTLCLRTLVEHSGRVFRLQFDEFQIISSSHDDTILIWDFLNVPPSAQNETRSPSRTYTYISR"},
  "source": "paper PMC9016900",
  "molecules": {"B1": {"name": "prothymosin alpha (ProTα), human, split-ubiquitin fusion (protein, UniProt P06454 1-111)", "chain": "MSDAAVDTSSEITTKDLKEKKEVVEEAENGRDAPANGNAENEENGEQEADNEVDEEEEEGGEEEEEEEEGDGEEEDGDEDEEAESATGKRAAEDDEDDDVDTKKQKTDEDD"}},
  "key": {"[1]": {"target": "T1, Nuclear factor erythroid 2-related factor 2 (Nrf2), human, split-ubiquitin fusion (human) (UniProt Q16236)", "T1 sequence": "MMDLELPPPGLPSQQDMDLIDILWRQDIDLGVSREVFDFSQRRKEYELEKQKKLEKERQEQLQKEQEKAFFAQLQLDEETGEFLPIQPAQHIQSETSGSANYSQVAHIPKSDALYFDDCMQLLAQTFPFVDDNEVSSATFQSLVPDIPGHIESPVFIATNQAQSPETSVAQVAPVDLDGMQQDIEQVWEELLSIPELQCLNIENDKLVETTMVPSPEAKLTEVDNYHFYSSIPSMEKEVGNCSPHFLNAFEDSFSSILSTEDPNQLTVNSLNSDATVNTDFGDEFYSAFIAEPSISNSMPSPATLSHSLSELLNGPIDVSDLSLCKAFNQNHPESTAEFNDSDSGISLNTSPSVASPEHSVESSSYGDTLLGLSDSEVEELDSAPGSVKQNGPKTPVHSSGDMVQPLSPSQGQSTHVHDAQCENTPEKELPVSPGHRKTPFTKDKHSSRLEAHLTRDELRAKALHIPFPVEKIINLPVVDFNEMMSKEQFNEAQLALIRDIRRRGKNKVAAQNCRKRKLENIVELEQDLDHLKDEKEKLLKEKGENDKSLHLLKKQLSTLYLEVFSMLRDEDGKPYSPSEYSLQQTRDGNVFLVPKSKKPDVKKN", "test": "split reporter; yeast split-ubiquitin system: Nub (NuI, NuA, NuG) and Cub-RUra3p (CRU) fusions co-expressed in yeast; interaction = no growth on uracil- media and growth on 5FOA media; 5x serial dilutions spotted on selective agar plates"}, "[2]": {"target": "Kelch-like ECH-associated protein (Keap1), human, split-ubiquitin fusion (human) (UniProt Q14145)", "test": "split reporter; yeast split-ubiquitin system: Nub (NuI, NuA, NuG) and Cub-RUra3p (CRU) fusions co-expressed in yeast; interaction = no growth on uracil- media and growth on 5FOA media; 5x serial dilutions spotted on selective agar plates"}},
  "note": "These are yes or no findings as the source states them, for the method shown. Binding seen in cells or lysates may run through a third protein. Some binding calls cover weakened binding; strength is not graded here. Sequences can lack the tags named with a protein.",
  "data": [
    {"molecule": "β-transducin repeat-containing protein (βTrCP), human, split-ubiquitin fusion (from UniProt Q9UKB1 1-542)", "values": [
      {"measurement": "binding", "setting": "[1]", "value": "binds"},
      {"measurement": "binding", "setting": "[2]", "value": "binds"}
    ]},
    {"molecule": "B1", "values": [
      {"measurement": "binding", "setting": "[2]", "value": "binds"}
    ]}
  ]
}
